Results are given in words; binding and its absence hold for the method and conditions named. Binding seen in cells or lysates may run through a third protein. Some results given as binding are weak or reduced against the parent protein; the word gives no strength. Where a sequence is shown, tags or fusion partners need not be part of it.
Biological target: T1, AGO3 fused to split YFP (BiFC) (Arabidopsis) (UniProt Q9SHF2)
T1 sequence: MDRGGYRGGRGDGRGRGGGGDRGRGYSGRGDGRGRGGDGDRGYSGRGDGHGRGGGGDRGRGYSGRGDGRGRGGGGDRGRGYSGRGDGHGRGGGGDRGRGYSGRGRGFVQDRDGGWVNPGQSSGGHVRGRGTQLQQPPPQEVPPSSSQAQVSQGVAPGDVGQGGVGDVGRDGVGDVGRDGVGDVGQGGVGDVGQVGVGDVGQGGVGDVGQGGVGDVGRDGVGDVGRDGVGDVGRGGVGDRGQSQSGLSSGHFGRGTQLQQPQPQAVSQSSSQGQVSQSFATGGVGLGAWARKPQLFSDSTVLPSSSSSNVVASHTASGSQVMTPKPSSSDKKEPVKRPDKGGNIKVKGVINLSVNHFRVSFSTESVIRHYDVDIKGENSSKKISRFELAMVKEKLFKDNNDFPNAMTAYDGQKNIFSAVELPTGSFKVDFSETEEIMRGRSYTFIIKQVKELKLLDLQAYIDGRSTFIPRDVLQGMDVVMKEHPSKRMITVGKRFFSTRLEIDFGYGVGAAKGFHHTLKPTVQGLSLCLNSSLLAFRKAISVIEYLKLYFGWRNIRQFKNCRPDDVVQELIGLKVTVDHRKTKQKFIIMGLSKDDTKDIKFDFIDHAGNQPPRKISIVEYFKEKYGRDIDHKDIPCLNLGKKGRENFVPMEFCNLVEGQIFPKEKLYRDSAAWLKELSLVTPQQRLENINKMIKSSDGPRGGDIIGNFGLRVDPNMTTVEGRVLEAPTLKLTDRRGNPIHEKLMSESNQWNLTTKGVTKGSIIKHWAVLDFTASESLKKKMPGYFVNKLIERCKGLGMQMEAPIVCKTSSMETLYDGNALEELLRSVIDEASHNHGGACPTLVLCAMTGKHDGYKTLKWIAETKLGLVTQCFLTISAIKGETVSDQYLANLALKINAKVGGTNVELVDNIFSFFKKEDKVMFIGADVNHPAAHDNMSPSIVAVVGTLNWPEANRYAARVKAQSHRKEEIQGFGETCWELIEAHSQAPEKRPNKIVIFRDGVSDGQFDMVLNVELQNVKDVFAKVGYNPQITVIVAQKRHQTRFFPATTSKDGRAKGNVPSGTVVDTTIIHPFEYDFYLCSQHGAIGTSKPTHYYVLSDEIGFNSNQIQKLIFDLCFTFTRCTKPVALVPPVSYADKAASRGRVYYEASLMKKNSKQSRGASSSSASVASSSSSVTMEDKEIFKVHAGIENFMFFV
Assay: split reporter; BiFC with split YFP from pBiFC-2in1 vectors in Agrobacterium-infiltrated Nicotiana benthamiana leaves; imaged 3 days after infiltration by confocal microscopy; p35S::RFP as transformation control

- binding: binds
B1: NHP2 fused to split YFP (BiFC) (protein, UniProt Q9LEY9 1-156)
chain: MGSDTEAEKSIQKEKKKYAITLAPIAKPLAGKKLQKRTFKLIQKAAGKKCLKRGVKEVVKSIRRGQKGLCVIAGNISPIDVITHLPILCEEAGVPYVYVPSKEDLAQAGATKRPTCCVLVMLKPAKGDLTAEELAKLKTDYEQVSDDIKELATSVI

From PMC11832342
